The exact form of at least one protein or probe is not confirmed. At least one result comes from cells or an extract, where the contact may be indirect. For some assays here: No signal at the amounts used counts as a negative. For some assays here: At least one verdict rests on a figure or table, not on a statement of the authors. For some assays here: Weaker means in comparison with the reference protein, sequence or condition of that experiment.

Data set [1] deals with EGFR on MDA-MB-231 cells (HER2-negative control) (Homo sapiens) (UniProt P00533). Put plainly: cell binding, NIR fluorescence. The note with it: HER2-negative MDA-MB-231 cells; live adherent cells (1e4/well), 0.01-10 uM 5'-IRD800 aptamer in growth medium with 5% FBS, 37 C (or 4 C), 1 h; buffer salt and pH not stated; protein on the cell surface; label: 5' IRD800CW; single-stranded DNA.

Data set [2] addresses HER2 on SK-BR-3 cells (Homo sapiens) (UniProt P04626). Put plainly: cell binding, NIR fluorescence. The note with it: live adherent cells (1e4/well), 0.01-10 uM 5'-IRD800 aptamer in growth medium with 5% FBS, 37 C (or 4 C), 1 h, buffer salt and pH not stated, protein on the cell surface, label: 5' IRD800CW, single-stranded DNA.
The target in data set [3] is HER2 on MDA-MB-453 cells (Homo sapiens) (UniProt P04626). Put plainly: cell binding, NIR fluorescence. As to conditions: live adherent cells (1e4/well), 0.01-10 uM 5'-IRD800 aptamer in growth medium with 5% FBS, 37 C (or 4 C), 1 h, buffer salt and pH not stated, protein on the cell surface, label: 5' IRD800CW, single-stranded DNA.
For data set [4] the target is unchanged. Put plainly: competition with a labelled probe. As to conditions: 1-20 uM unlabeled vs 1 uM IRD800-HMAP7, almost complete inhibition at 20 uM; live adherent cells (1e4/well), 0.01-10 uM 5'-IRD800 aptamer in growth medium with 5% FBS, 37 C (or 4 C), 1 h; buffer salt and pH not stated; protein on the cell surface; single-stranded DNA.

For “CACCCAAACTTGGTCTGGATACCCCTTATGCGCGTAGTTAC [M17]”, the binding result in data set [1] is given as “no binding”; in data set [2] it was “binds”; in data set [3], “binds”.
Regarding “CCGCCCAAACACACGTAAACAGATGAGGAGCCGACACTGGG [HMAP7 unlabeled]”, the binding result in data set [4] was “binds”.
Take “ACCAATCGCTCGTCATCACATAAAGAACCCCTCGAACCCCG [K10]”: the binding result in data set [1] is given as “no binding”; in data set [2] it was “binds”; in data set [3], “binds”.
In the case of “GCGCCGGCACCCCCCCGAGAATACTCCCACCACGTACACTT [M22]”, the figures for the binding result in data set [1], in data set [2] and in data set [3] were “no binding”, “binds” and “binds”, respectively.
For the sequence “ACCATCACGCCGACGTTTACCCACACAGCCAGAATCCCCCC [M1]”, the binding result in data set [1] is “no binding”; in data set [2] it was “binds”; in data set [3] it was “binds”.
On to “CCGCCCAAACACACGTAAACAGATGAGGAGCCGACACTGGG [HMAP7 (M7)]”, for which the binding result in data set [1] is recorded as “no binding”.
Regarding “CCAATGTATGGGCGGTCGGTGGATACACGTCTTAGCGTCGT [M27]”, the figures for the binding result in data set [1], in data set [2] and in data set [3] were “no binding”, “binds” and “binds”, respectively.
As for “GCCGCCGAAGAACTCTCAGCACGACCAGCCACCCCACGAGG [K15]”, the binding result is listed as “no binding” in data set [1], “binds” in data set [2] and “binds” in data set [3].
In the case of “TGGTCAATAATGTCCGGTAAGAGGCGCACAACTGGTTCGGT [K12]”, the binding result in data set [1] is reported as “no binding”; in data set [2], “binds”; in data set [3], “binds”.
Consider “CTCTTCGGGTGGGTGCGGGGTCCGAGTACTGTCTCACAGTG [M23]”, for which the figures for the binding result in data set [1], in data set [2] and in data set [3] were “no binding”, “binds” and “binds”, respectively.
In the case of “CCCACGATCTTCGTACCGGTCAATGCTTCAGCCTTGCGACG [M9]”, the binding result in data set [1] is reported as “no binding”; in data set [2] (lowest affinity of the 10) it was “binds more weakly”; in data set [3] (lowest affinity of the 10), “binds more weakly”.
